Article PMC3777911
Results are given in words; binding and its absence hold for the method and conditions named. Some entries that bind do so weakly or less than the wild type.

Chains of the proteins cited; added tags and fusions are not shown. Lines headed by an entry give the natural chain unless they say otherwise; changes in a name come on top.
UniProt P55735: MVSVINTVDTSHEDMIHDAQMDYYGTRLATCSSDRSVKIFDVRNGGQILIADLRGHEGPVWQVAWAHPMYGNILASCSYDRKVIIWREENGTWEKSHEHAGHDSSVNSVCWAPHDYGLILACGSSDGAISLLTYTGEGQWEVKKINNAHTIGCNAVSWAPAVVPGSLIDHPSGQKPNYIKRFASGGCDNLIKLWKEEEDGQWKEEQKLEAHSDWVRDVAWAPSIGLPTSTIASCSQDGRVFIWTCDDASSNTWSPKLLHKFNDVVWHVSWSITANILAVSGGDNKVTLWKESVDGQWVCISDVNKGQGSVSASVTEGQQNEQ

Target: HA-Sec13/His-Sec31A complex (outer COPII coat), wild type (UniProt P55735)
Test: pull-down; His-tagged Sec31A (Sec13/Sec31A) immobilised on Nickel beads, recombinant ALG-2 versions added, in the presence of Ca2+; eluates on SDS-PAGE, SyproRed; ratios from fluorescence intensity; both purified

binding: binds
B1: ALG-2 with the E114A substitution in EF-hand 3 (protein, UniProt P12815 1-191)
chain: MAAYSYRPGPGGGPGPAAGAALPDQSFLWNVFQRVDKDRSGVISDNELQQALSNGTWTPFNPVTVRSIISMFDRENKAGVNFSEFTGVWKYITDWQNVFRTYDRDNSGMIDKNALKQALSGFGYRLSDQFHDILIRKFDRQGRGQIAFDDFIQGCIVLQRLTDIFRRYDTDQDGWIQVSYEQYLSMVFSIV
